Measured values from patent US12590951B2, “Culture medium and culture method for primary cells of intestinal cancer” (PRECEDO PHARMACEUTICALS CO., LTD, priority 2021, dated 2026).
At least one compound was matched to its structure with a doubt left. Some results were stated once for a whole list of compounds, not compound by compound.

Columns and labels:
[1] = system: primary cells of intestinal cancer; test: Effect of different concentrations of factors in CA-1 medium on proliferation (ratio of cell number to Blank Control); assay type: cell-based, human; conditions: according to proliferation ratio vs Blank Control, FIGS. 2A-2J
[2] = system: primary cells of intestinal cancer; test: Effect of single additives in Basic Medium on proliferation of primary cells of intestinal cancer (cell count); assay type: cell-based, human; design: key: +: compared with the Basic Medium, the medium added with the additive(s) has the effect of promoting the proliferation of primary cells of intestinal cancer isolated from intestinal cancer tissue in at least two cases; −: the medium added with the additive(s) has the effect of inhibiting the proliferation of primary cells of intestinal cancer isolated from intestinal cancer tissue in at least one case; ∘: the medium added with the additive(s) has no significant effect on the proliferation of primary cells of intestinal cancer isolated from intestinal cancer tissue in at least two cases; conditions: additive at the final concentration in Basic Medium; samples OE0042 and OE(E)003; 7-10 days; compared with Basic Medium
Experimental: First, Basic Medium was prepared. The formulation of Basic Medium is: DMEM/F12 medium (purchased from Corning)+5 μM Y27632 (purchased from MCE)+5% (v/v) fetal bovine serum (purchased from Excell Bio)+100 μg/mL Primocin (purchased from InvivoGen, 0.2% (v/v), the concentration of commercial product is 50 mg/ml).
Different types of additives (see Table 1) were added to the Basic Medium to prepare the culture mediums for primary cells of intestinal cancer containing different components.
The culture mediums of different components as shown in Table 1 were added into a 48-well plate at a volume of 1 mL/well. Primary cells of intestinal cancer isolated from two cases of intestinal cancer tissues (numbered OE0042 and OE(E)003) according to the above step (2) were inoculated into the 48-well culture plate at a cell density of 3×10^4 cells/well, and were cultured at 37° C., under 5% CO2 concentration. After culturing for 7-10 days, when the cells grew to 85%, the culture medium was discarded, and 100 μL/well of 0.05% trypsin (purchased from Gibco) was used to rinse the cells once. After the trypsin was removed, 200 μL of 0.05% trypsin was added to each well. […] 20 μL of the resultant was added into a cell counting plate (Countstar, specification: 50 pieces/box), and the total number of cells was counted with a cell counter (Countstar, IC1000). […]

Row | Compound | amount in culture medium, even more preferably [1] | amount in culture medium, more preferably [1] | amount in culture medium, preferably [1] | Level of promoting cell proliferation [2]
1 | CSCCC(NC(=O)C(Cc1c[nH]c2ccccc12)NC(=O)CNC(=O)C(Cc1ccc(O)cc1)NC(=O)C(C)NC(=O)C(CCC(=O)O)NC(=O)C(CCC(=O)O)NC(=O)C(CCC(=O)O)NC(=O)[C@H](CCC(=O)O)NC(=O)[C@H](CCC(=O)O)NC(=O)[C@H](CC(C)C)NC(=O)[C@H](Cc1c[nH]c2ccccc12)NC(=O)[C@@H]1CCCN1C(=O)CNC(=O)[C@@H](N)CCC(=O)O)C(=O)NC(CC(=O)O)C(=O)NC(Cc1ccccc1)C(N)=O (stereo in doubt) [gastrin] | 5 nM | 2.5 to 10 nM | 1.25 to 20 nM | ∘
2 | C[C@@H](N)[C@H]1CC[C@H](C(=O)Nc2ccncc2)CC1 [Y-27632] | – | 2500 to 5000 nM | – | –
